From patent publication US20040073013A1 (Chugai, published 2004)
These are yes or no findings as the source states them, for the method shown. Some results given as binding are weak or reduced against the parent protein; the word gives no strength.

The chains behind the UniProt entries cited, without tags or fusion partners. Residues count along the entry.
UniProt Q08722, residues 19-323: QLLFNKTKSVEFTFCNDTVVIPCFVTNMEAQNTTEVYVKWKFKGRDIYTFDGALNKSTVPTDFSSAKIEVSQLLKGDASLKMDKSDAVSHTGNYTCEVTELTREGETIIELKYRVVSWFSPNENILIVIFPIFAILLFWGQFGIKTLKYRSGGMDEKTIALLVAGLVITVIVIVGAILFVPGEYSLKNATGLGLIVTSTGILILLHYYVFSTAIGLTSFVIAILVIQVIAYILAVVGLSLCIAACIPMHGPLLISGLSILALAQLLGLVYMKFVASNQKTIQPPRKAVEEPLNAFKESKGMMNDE

B1: purified dimer of MABL2-scFv <HL-5> (scFv)
scFv 1: QVQLQQSGPELVKPGASVKMSCKASGYTFANHVIHWVKQKPGQGLEWIGYIYPYNDGTKYNEKFKDKATLTSDKSSTTAYMDLSSLASEDSAVYYCARGGYYTYDDWGQGTTLTVSSGGGGSDVVMTQSPLSLPVSLGDQASISCRSSQSLVHSNGKTYLHWYLQKPGQSPKLLIYKVSNRFSGVPDRFSGSGSVTDFTLMISRVEAEDLGVYFCSQSTHVPYTFGGGTKLEIKDYKDDDDK
scFv 2: B1 scFv 1
modifications: The two identical scFv chains form a non-covalent homodimer.
B2: MABL2-scFv <LH-5> (scFv)
scFv: DVVMTQSPLSLPVSLGDQASISCRSSQSLVHSNGKTYLHWYLQKPGQSPKLLIYKVSNRFSGVPDRFSGSGSVTDFTLMISRVEAEDLGVYFCSQSTHVPYTFGGGTKLEIKSGGGGQVQLQQSGPELVKPGASVKMSCKASGYTFANHVIHWVKQKPGQGLEWIGYIYPYNDGTKYNEKFKDKATLTSDKSSTTAYMDLSSLASEDSAVYYCARGGYYTYDDWGQGTTLTVSSDYKDDDDK
B3: MABL2-scFv <LH-3> (scFv)
scFv: DVVMTQSPLSLPVSLGDQASISCRSSQSLVHSNGKTYLHWYLQKPGQSPKLLIYKVSNRFSGVPDRFSGSGSVTDFTLMISRVEAEDLGVYFCSQSTHVPYTFGGGTKLEIKSGGQVQLQQSGPELVKPGASVKMSCKASGYTFANHVIHWVKQKPGQGLEWIGYIYPYNDGTKYNEKFKDKATLTSDKSSTTAYMDLSSLASEDSAVYYCARGGYYTYDDWGQGTTLTVSSDYKDDDDK
B4: MABL2-scFv <HL-3> (scFv)
scFv: QVQLQQSGPELVKPGASVKMSCKASGYTFANHVIHWVKQKPGQGLEWIGYIYPYNDGTKYNEKFKDKATLTSDKSSTTAYMDLSSLASEDSAVYYCARGGYYTYDDWGQGTTLTVSSGGSDVVMTQSPLSLPVSLGDQASISCRSSQSLVHSNGKTYLHWYLQKPGQSPKLLIYKVSNRFSGVPDRFSGSGSVTDFTLMISRVEAEDLGVYFCSQSTHVPYTFGGGTKLEIKDYKDDDDK
B5: MABL2-scFv <HL-5> (COS7 culture supernatant) (scFv)
scFv: B1 scFv 1
B6: MABL2-scFv <LH-7> (scFv)
scFv: DVVMTQSPLSLPVSLGDQASISCRSSQSLVHSNGKTYLHWYLQKPGQSPKLLIYKVSNRFSGVPDRFSGSGSVTDFTLMISRVEAEDLGVYFCSQSTHVPYTFGGGTKLEIKSGGGGGGQVQLQQSGPELVKPGASVKMSCKASGYTFANHVIHWVKQKPGQGLEWIGYIYPYNDGTKYNEKFKDKATLTSDKSSTTAYMDLSSLASEDSAVYYCARGGYYTYDDWGQGTTLTVSSDYKDDDDK
B7: MABL2-scFv <HL-7> (scFv)
scFv: QVQLQQSGPELVKPGASVKMSCKASGYTFANHVIHWVKQKPGQGLEWIGYIYPYNDGTKYNEKFKDKATLTSDKSSTTAYMDLSSLASEDSAVYYCARGGYYTYDDWGQGTTLTVSSGGGGGGSDVVMTQSPLSLPVSLGDQASISCRSSQSLVHSNGKTYLHWYLQKPGQSPKLLIYKVSNRFSGVPDRFSGSGSVTDFTLMISRVEAEDLGVYFCSQSTHVPYTFGGGTKLEIKDYKDDDDK
B8: MABL2-scFv <LH-4> (scFv)
scFv: DVVMTQSPLSLPVSLGDQASISCRSSQSLVHSNGKTYLHWYLQKPGQSPKLLIYKVSNRFSGVPDRFSGSGSVTDFTLMISRVEAEDLGVYFCSQSTHVPYTFGGGTKLEIKSGGGQVQLQQSGPELVKPGASVKMSCKASGYTFANHVIHWVKQKPGQGLEWIGYIYPYNDGTKYNEKFKDKATLTSDKSSTTAYMDLSSLASEDSAVYYCARGGYYTYDDWGQGTTLTVSSDYKDDDDK
B9: MABL2-scFv <LH-6> (scFv)
scFv: DVVMTQSPLSLPVSLGDQASISCRSSQSLVHSNGKTYLHWYLQKPGQSPKLLIYKVSNRFSGVPDRFSGSGSVTDFTLMISRVEAEDLGVYFCSQSTHVPYTFGGGTKLEIKSGGGGGQVQLQQSGPELVKPGASVKMSCKASGYTFANHVIHWVKQKPGQGLEWIGYIYPYNDGTKYNEKFKDKATLTSDKSSTTAYMDLSSLASEDSAVYYCARGGYYTYDDWGQGTTLTVSSDYKDDDDK
B10: MABL2-scFv <HL-4> (scFv)
scFv: QVQLQQSGPELVKPGASVKMSCKASGYTFANHVIHWVKQKPGQGLEWIGYIYPYNDGTKYNEKFKDKATLTSDKSSTTAYMDLSSLASEDSAVYYCARGGYYTYDDWGQGTTLTVSSGGGSDVVMTQSPLSLPVSLGDQASISCRSSQSLVHSNGKTYLHWYLQKPGQSPKLLIYKVSNRFSGVPDRFSGSGSVTDFTLMISRVEAEDLGVYFCSQSTHVPYTFGGGTKLEIKDYKDDDDK
B11: MABL2-scFv <HL-6> (scFv)
scFv: QVQLQQSGPELVKPGASVKMSCKASGYTFANHVIHWVKQKPGQGLEWIGYIYPYNDGTKYNEKFKDKATLTSDKSSTTAYMDLSSLASEDSAVYYCARGGYYTYDDWGQGTTLTVSSGGGGGSDVVMTQSPLSLPVSLGDQASISCRSSQSLVHSNGKTYLHWYLQKPGQSPKLLIYKVSNRFSGVPDRFSGSGSVTDFTLMISRVEAEDLGVYFCSQSTHVPYTFGGGTKLEIKDYKDDDDK

Target: human Integrin Associated Protein (IAP) expressed on mouse leukemia cell line L1210 (human) (UniProt Q08722)
Assay: flow cytometry, purified protein on hIAP/L1210 cells against pCOS1/L1210 control cells, anti-FLAG detection

Row | binding | Binder
1 | binds | B1

Target: human Integrin Associated Protein (IAP) expressed on mouse leukemia cell line L1210 (human) (UniProt Q08722)
Assay: flow cytometry, FIGS. 40a and 40b

Row | binding | Binder
2 | binds | B2
3 | binds | B3
4 | binds | B4
5 | binds | B5
6 | binds | B6
7 | binds | B7
8 | binds | B8
9 | binds | B9
10 | binds | B10
11 | binds | B11

Target: human Integrin Associated Protein (IAP) expressed on mouse leukemia cell line L1210 (human) (UniProt Q08722)
Assay: flow cytometry, COS7 supernatant on L1210 cells expressing human IAP, anti-FLAG detection

Row | binding | Binder
12 | binds | B2
13 | binds | B3
14 | binds | B4
15 | binds | B5
16 | binds | B6
17 | binds | B7
18 | binds | B8
19 | binds | B9
20 | binds | B10
21 | binds | B11

Target: human Integrin Associated Protein (IAP) expressed on mouse leukemia cell line L1210 (human) (UniProt Q08722)
Assay: flow cytometry, FIG. 42

Row | binding | Binder
22 | binds | B1
